Assay results: publication PMC4479245
No constants are given. Whether binding was seen depends on the method and setting. For some of these results: In cells and extracts the contact can be indirect. Some results given as binding are weak or reduced against the parent protein; the word gives no strength. Blank lines part the entries; values can stand above or below the substance they belong to.

Amino acid sequences for entries named in this document (tags omitted). A change or cut given only in a name is not applied to a line headed by its entry.
UniProt Q9UBN7: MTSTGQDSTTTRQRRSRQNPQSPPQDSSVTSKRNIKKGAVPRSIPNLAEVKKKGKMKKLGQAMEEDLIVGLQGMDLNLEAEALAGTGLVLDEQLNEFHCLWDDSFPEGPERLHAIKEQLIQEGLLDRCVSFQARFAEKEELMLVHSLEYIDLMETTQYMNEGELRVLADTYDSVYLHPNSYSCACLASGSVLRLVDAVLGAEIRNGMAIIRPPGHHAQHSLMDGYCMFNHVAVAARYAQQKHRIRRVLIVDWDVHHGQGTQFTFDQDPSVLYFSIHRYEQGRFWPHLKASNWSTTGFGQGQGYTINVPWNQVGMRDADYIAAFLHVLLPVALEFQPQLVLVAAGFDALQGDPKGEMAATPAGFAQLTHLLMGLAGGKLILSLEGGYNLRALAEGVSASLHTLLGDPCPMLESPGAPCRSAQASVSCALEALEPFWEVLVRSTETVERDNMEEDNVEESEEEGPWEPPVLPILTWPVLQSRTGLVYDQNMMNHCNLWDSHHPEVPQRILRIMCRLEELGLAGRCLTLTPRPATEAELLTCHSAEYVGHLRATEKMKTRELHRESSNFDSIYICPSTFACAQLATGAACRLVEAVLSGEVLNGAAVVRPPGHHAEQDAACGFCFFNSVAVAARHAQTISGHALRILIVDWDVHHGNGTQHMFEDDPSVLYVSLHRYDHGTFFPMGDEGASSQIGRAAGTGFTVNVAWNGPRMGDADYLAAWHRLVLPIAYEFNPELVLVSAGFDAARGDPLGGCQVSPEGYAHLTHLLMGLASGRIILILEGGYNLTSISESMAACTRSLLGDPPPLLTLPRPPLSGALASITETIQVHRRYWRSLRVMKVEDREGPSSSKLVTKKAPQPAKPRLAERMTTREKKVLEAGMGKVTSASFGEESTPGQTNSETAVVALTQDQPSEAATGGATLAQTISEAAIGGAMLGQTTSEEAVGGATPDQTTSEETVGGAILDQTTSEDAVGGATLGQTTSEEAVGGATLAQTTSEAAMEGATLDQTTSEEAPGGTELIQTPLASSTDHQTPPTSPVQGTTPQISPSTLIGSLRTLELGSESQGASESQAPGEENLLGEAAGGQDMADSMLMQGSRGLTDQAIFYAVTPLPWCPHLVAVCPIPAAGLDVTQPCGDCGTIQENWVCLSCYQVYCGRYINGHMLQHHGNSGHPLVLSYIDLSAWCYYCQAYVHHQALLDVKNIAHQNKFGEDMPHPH
UniProt P12504: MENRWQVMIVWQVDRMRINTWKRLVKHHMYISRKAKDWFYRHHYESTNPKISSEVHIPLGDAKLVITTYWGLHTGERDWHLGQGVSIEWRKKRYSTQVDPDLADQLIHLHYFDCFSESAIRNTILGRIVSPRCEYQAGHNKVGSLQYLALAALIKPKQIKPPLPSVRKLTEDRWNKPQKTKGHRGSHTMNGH
UniProt Q9HC16: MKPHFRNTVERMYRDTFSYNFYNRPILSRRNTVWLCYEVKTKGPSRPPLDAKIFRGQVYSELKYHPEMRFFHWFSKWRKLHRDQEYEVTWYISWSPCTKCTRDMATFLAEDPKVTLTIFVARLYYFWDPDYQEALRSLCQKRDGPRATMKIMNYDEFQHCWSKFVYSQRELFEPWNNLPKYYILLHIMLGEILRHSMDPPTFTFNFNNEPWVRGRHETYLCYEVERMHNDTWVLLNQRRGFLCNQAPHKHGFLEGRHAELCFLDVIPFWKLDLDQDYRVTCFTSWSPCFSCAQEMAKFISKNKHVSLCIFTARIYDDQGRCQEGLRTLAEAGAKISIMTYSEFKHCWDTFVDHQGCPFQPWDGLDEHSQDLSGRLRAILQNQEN

How the values were obtained:
[1] = biological target: endogenous HDAC6 (CEM.NKR.CCR5 cells) (human (endogenous in CEM.NKR-CCR5)) (UniProt Q9UBN7); assay: co-IP; CEM.NKR.CCR5 cell lysates, endogenous HDAC6 and A3G, without or with nucleofected Vif; IP with anti-HDAC6 Ab; blots with HDAC6, A3G or Vif Abs
[2] = biological target: HA-Vif (HEK 293T) (HIV-1) (UniProt P12504); assay: co-IP; as a1, but cell lysates treated with RNAse A (1 mg/mL); IP with anti-EGFP (Figure 6b) or anti-HA (Figure 7b, right); western blot
A3G-3xHA (human) = A3G-3xHA (human) (UniProt Q9HC16); assay: co-IP; HEK 293T cells transfected, lysed in RIPA 1X; 2 µg of Ab (anti-HA, anti-HDAC6, anti-myc or anti-Flag) 2 h at 4°C, protein G Dynabeads, five washes in RIPA; western blot; lysates not treated with RNAse A; for HDAC6/A3G-Vif interactions cells pre-treated with ALLN (25 μM, 16 h)
[3] = biological target: HA-Vif (HEK 293T) (HIV-1) (UniProt P12504); assay: as above
A3G-Flag (human) = A3G-Flag (human) (UniProt Q9HC16); assay: as above
A3G-myc (human) = A3G-myc (human) (UniProt Q9HC16); assay: as above
EGFP-HDAC6-BUZ (human) = EGFP-HDAC6-BUZ (human) (UniProt Q9UBN7); assay: co-IP; as a1, but cell lysates treated with RNAse A (1 mg/mL); IP with anti-EGFP (Figure 6b) or anti-HA (Figure 7b, right); western blot
EGFP-HDAC6-ΔBUZ (human) [4] = biological target: EGFP-HDAC6-ΔBUZ (human) (UniProt Q9UBN7); assay: as above
EGFP-wt-HDAC6 (human) [5] = biological target: EGFP-wt-HDAC6 (human) (UniProt Q9UBN7); assay: as above
EGFP-HDAC6-ΔBUZ (human) [6] = biological target: EGFP-HDAC6-ΔBUZ (human) (UniProt Q9UBN7); assay: co-IP; HEK 293T cells transfected, lysed in RIPA 1X; 2 µg of Ab (anti-HA, anti-HDAC6, anti-myc or anti-Flag) 2 h at 4°C, protein G Dynabeads, five washes in RIPA; western blot; lysates not treated with RNAse A; for HDAC6/A3G-Vif interactions cells pre-treated with ALLN (25 μM, 16 h)
EGFP-wt-HDAC6 (human) [7] = biological target: EGFP-wt-HDAC6 (human) (UniProt Q9UBN7); assay: as above
[8] = biological target: endogenous HDAC6 (HEK 293T cells) (human (endogenous in HEK 293T)) (UniProt Q9UBN7); assay: as above
GST-A3G (human) = GST-A3G (human) (UniProt Q9HC16); assay: pull-down; 3 μg GST fusion protein immobilised on glutathione-Sepharose beads, 2 μg purified in vitro translated HA-tagged protein, overnight in RIPA buffer at 4°C, three washes; anti-HA blot; both purified
GST-A3G-C97A (human) = GST-A3G-C97A (human) (UniProt Q9HC16); assay: as above
GST-A3G-D128K (human) [9] = biological target: GST-A3G-D128K (human) (UniProt Q9HC16); assay: as above
GST-Vif (HIV-1) = GST-Vif (HIV-1) (UniProt P12504); assay: as above
GST-A3G-D128K (human) [10] = biological target: GST-A3G-D128K (human) (UniProt Q9HC16); assay: pull-down; as a4, but GST-A3G-D128K on beads incubated with both HA-Vif and HA-HDAC6 (wt or ΔBUZ) proteins; anti-HA blot; both purified

- binding [1]: binds
Substance: endogenous A3G (CEM.NKR.CCR5 cells) (from UniProt Q9HC16 1-384)

Substance: EGFP-wt-HDAC6 (from UniProt Q9UBN7 1-1215)
- binding [2]: binds
- binding (A3G-3xHA (human)): binds
- binding [3]: binds

- binding (A3G-Flag (human)): binds
- binding (A3G-myc (human)): binds
Substance: HA-wt-HDAC6 (HEK 293T) (from UniProt Q9UBN7 1-1215)

- binding (EGFP-HDAC6-BUZ (human)): binds
- binding (EGFP-HDAC6-ΔBUZ (human) [4]): binds
- binding (EGFP-wt-HDAC6 (human) [5]): binds
- binding (EGFP-HDAC6-ΔBUZ (human) [6]): binds
- binding (EGFP-wt-HDAC6 (human) [7]): binds
- binding [8]: binds
Substance: A3G-3xHA (from UniProt Q9HC16 1-384)

Substance: Vif (overexpressed in CEM.NKR.CCR5 cells) (from UniProt P12504)
- binding [1]: binds

- binding (A3G-3xHA (human)): binds
Substance: endogenous HDAC6 (HEK 293T cells) (from UniProt Q9UBN7 1-1215)

Substance: EGFP-HDAC6-ΔBUZ (from UniProt Q9UBN7 1-840) (domain or fragment)
- binding [2]: binds
- binding [3]: binds

Substance: HA-BUZ (in vitro translated) (from UniProt Q9UBN7 841-1215) (domain or fragment)
- binding (GST-A3G (human)): binds
- binding (GST-A3G-C97A (human)): binds
- binding (GST-A3G-D128K (human) [9]): binds
- binding (GST-Vif (HIV-1)): binds

Substance: HA-HDAC6-ΔBUZ (in vitro translated) (from UniProt Q9UBN7 1-840) (domain or fragment)
- binding (GST-A3G-D128K (human) [10]): binds
- binding (GST-A3G (human)): binds
- binding (GST-A3G-C97A (human)): binds
- binding (GST-A3G-D128K (human) [9]): binds
- binding (GST-Vif (HIV-1)): binds
